Source: PubChem BioAssay AID1224826 (NIAID, 2016)
Here is one part, drawn at random, of about 17,000 reagents tested. About 1,110 of them (6.6%) were called active. 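Active means lowered or raised reporter signal; replicate intensities are raw and not normalised per plate.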

Purpose: 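Genes that change LPS-induced Tnf promoter activity in mouse macrophages when knocked down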 (primary screen)
Cells: RAW264.7 G9 macrophages from mouse bearing reporters for p65 (GFP) and the Tnf promoter (mCherry)
Reagent: siRNA pool against mouse genes, 100 nM
Timing: 16 h of LPS stimulation, after 2 days of siRNA transfection
Challenge: bacterial lipopolysaccharide (Salmonella minnesota R595), 10 ng/ml
Measured: 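Nuclear mCherry signal of the Tnf promoter reporter measured by imaging after background removal, scaled to each plate median and turned into robust z-scores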
Direction: Tnf reporter robust z-score: higher = stronger Tnf promoter reporter signal after LPS; Tnf reporter intensity: higher = stronger Tnf promoter reporter signal
Call rule: 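a well counts as active at a score of -1.3 or below (Tlr4 knock-down control median) or above 3 (raised signal); controls and wells holding fewer than 50 cells are excluded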
Calls: active = Tnf reporter clearly lowered or raised; inactive = no clear change in Tnf reporter

target gene | Tnf reporter robust z-score | fewer than 50 cells in well | Tnf reporter intensity, replicate 1 | Tnf reporter intensity, replicate 2 | activity call
Or7g28 (olfactory receptor family 7 subfamily G member 28) | – | fewer than 50 cells per well; well left out of calls | 34.5 | 36.7 | inactive
Fyb1 (FYN binding protein 1) | 0.43 | enough cells in well | 232 | 174 | inactive
Alg11 (ALG11 alpha-1,2-mannosyltransferase) | -0.47 | enough cells in well | 199 | 133 | inactive
Or13a22 (olfactory receptor family 13 subfamily A member 22) | 0.04 | enough cells in well | 123 | 89.7 | inactive
Lars2 (leucyl-tRNA synthetase, mitochondrial) | 1.35 | enough cells in well | 267 | 200 | inactive
Zfp944 (zinc finger protein 944) | – | fewer than 50 cells per well; well left out of calls | 177 | 140 | inactive
Ndufb7 (NADH:ubiquinone oxidoreductase subunit B7) | -0.21 | enough cells in well | 195 | 107 | inactive
Etv3 (ets variant 3) | -0.15 | enough cells in well | 224 | 136 | inactive
Rev1 (REV1, DNA directed polymerase) | -0.29 | enough cells in well | 305 | 167 | inactive
Fads6 (fatty acid desaturase domain family, member 6) | 0.7 | enough cells in well | 163 | 163 | inactive
BC043934 (cDNA sequence BC043934) | 0.12 | enough cells in well | 134 | 142 | inactive
Cyria (CYFIP related Rac1 interactor A) | -0.95 | enough cells in well | 110 | 136 | inactive
Nrbp1 (nuclear receptor binding protein 1) | -1.72 | enough cells in well | 95.2 | 55.6 | active
Bop1 (block of proliferation 1) | -0.7 | enough cells in well | 53.9 | 123 | inactive
Or6z5 (olfactory receptor family 6 subfamily Z member 5) | 2.41 | enough cells in well | 337 | 212 | inactive
Egfl8 (EGF-like domain 8) | 0.68 | enough cells in well | 267 | 117 | inactive
Nucleolin (nucleolin multifunctional protein) | -0.37 | enough cells in well | 127 | 133 | inactive
Il7 (interleukin 7) | 0.32 | enough cells in well | 267 | 165 | inactive
Prr5 (proline rich 5 (renal)) | -1.13 | enough cells in well | 105 | 92.3 | inactive
Pard6g (par-6 family cell polarity regulator gamma) | -0.15 | enough cells in well | 160 | 108 | inactive
Tnfsf15 (tumor necrosis factor (ligand) superfamily, member 15) | 1.22 | enough cells in well | 354 | 174 | inactive
Nedd9 | 1.31 | enough cells in well | 276 | 182 | inactive
Cul2 (cullin 2) | -0.26 | enough cells in well | 220 | 179 | inactive
Lgals7 (lectin, galactose binding, soluble 7) | 3.3 | enough cells in well | 398 | 312 | active
Cpped1 (calcineurin-like phosphoesterase domain containing 1) | -0.73 | enough cells in well | 81.5 | 127 | inactive
Or6c74 (olfactory receptor family 6 subfamily C member 74) | -0.24 | enough cells in well | 64.5 | 107 | inactive
Taf1a | -0.36 | enough cells in well | 173 | 138 | inactive
Abi2 (abl interactor 2) | -0.12 | enough cells in well | 130 | 175 | inactive
Map2k2 (mitogen-activated protein kinase kinase 2) | -1 | enough cells in well | 130 | 125 | inactive
Atox1 (antioxidant 1 copper chaperone) | – | fewer than 50 cells per well; well left out of calls | 39.1 | 55 | inactive
Kcnk3 (potassium channel, subfamily K, member 3) | 1.55 | enough cells in well | 316 | 265 | inactive
Sptlc3 (serine palmitoyltransferase, long chain base subunit 3) | 1.16 | enough cells in well | 159 | 222 | inactive
Chmp3 (charged multivesicular body protein 3) | 1.19 | enough cells in well | 187 | 108 | inactive
Katnal1 (katanin p60 subunit A-like 1) | 2.01 | enough cells in well | 213 | 334 | inactive
Axin2 (axin 2) | 0.13 | enough cells in well | 134 | 193 | inactive
Or6n1 (olfactory receptor family 6 subfamily N member 1) | 0.64 | enough cells in well | 89.4 | 143 | inactive
Ankle1 (ankyrin repeat and LEM domain containing 1) | – | fewer than 50 cells per well; well left out of calls | 116 | 55.7 | inactive
Tspan18 (tetraspanin 18) | 0.47 | enough cells in well | 226 | 200 | inactive
Ppp3cc (protein phosphatase 3, catalytic subunit, gamma isoform) | 0.2 | enough cells in well | 249 | 218 | inactive
Mvd (mevalonate (diphospho) decarboxylase) | -1.3 | enough cells in well | 111 | 89.3 | active
Galp (galanin-like peptide) | – | fewer than 50 cells per well; well left out of calls | 94.6 | 73.2 | inactive
Krt32 (keratin 32) | 0.29 | enough cells in well | 221 | 137 | inactive
Piezo2 (piezo-type mechanosensitive ion channel component 2) | -1.29 | enough cells in well | 101 | 108 | inactive
Tspan3 (tetraspanin 3) | -0.22 | enough cells in well | 109 | 52.2 | inactive
Ttll8 (tubulin tyrosine ligase-like family, member 8) | 2.16 | enough cells in well | 363 | 89.9 | inactive
Cab39 (calcium binding protein 39) | -0.56 | enough cells in well | 121 | 159 | inactive
Sgpl1 (sphingosine phosphate lyase 1) | 0.74 | enough cells in well | 130 | 123 | inactive
Fcgr1 (Fc receptor, IgG, high affinity I) | -0.86 | enough cells in well | 168 | 158 | inactive
Pdcd1lg2 (programmed cell death 1 ligand 2) | -0.71 | enough cells in well | 115 | 85.9 | inactive
Taar8a (trace amine-associated receptor 8A) | 0.68 | enough cells in well | 265 | 361 | inactive
Cd14 (CD14 antigen) | -0.9 | enough cells in well | 174 | 142 | inactive
Tubb4a (tubulin, beta 4A class IVA) | -0.38 | enough cells in well | 167 | 240 | inactive
Fhad1 (forkhead-associated phosphopeptide binding domain 1) | -0.16 | enough cells in well | 154 | 163 | inactive
Cyp2j9 (cytochrome P450, family 2, subfamily j, polypeptide 9) | -0.53 | enough cells in well | 130 | 168 | inactive
Ctso (cathepsin O) | 1.96 | enough cells in well | 387 | 340 | inactive
Tenm1 (teneurin transmembrane protein 1) | 0.89 | enough cells in well | 282 | 165 | inactive
Abcb4 (ATP-binding cassette, sub-family B member 4) | 1.58 | enough cells in well | 240 | 245 | inactive
Eef1e1 (eukaryotic translation elongation factor 1 epsilon 1) | -1.28 | enough cells in well | 103 | 67.7 | inactive

7 neighbouring reagents already listed, for reference:
target gene | Tnf reporter robust z-score | fewer than 50 cells in well | Tnf reporter intensity, replicate 1 | Tnf reporter intensity, replicate 2 | activity call
Pard6g (par-6 family cell polarity regulator gamma) | -0.15 | enough cells in well | 160 | 108 | inactive
Tnfsf15 (tumor necrosis factor (ligand) superfamily, member 15) | 1.22 | enough cells in well | 354 | 174 | inactive
Nedd9 | 1.31 | enough cells in well | 276 | 182 | inactive
Cul2 (cullin 2) | -0.26 | enough cells in well | 220 | 179 | inactive
Lgals7 (lectin, galactose binding, soluble 7) | 3.3 | enough cells in well | 398 | 312 | active
Cpped1 (calcineurin-like phosphoesterase domain containing 1) | -0.73 | enough cells in well | 81.5 | 127 | inactive
Or6c74 (olfactory receptor family 6 subfamily C member 74) | -0.24 | enough cells in well | 64.5 | 107 | inactive
